The values that follow come from paper PMC5896025.

Sequences of proteins named here, by UniProt entry; tags and fusion partners are left off. A change or cut given only in a name is not applied to a line headed by its entry.
UniProt P48432: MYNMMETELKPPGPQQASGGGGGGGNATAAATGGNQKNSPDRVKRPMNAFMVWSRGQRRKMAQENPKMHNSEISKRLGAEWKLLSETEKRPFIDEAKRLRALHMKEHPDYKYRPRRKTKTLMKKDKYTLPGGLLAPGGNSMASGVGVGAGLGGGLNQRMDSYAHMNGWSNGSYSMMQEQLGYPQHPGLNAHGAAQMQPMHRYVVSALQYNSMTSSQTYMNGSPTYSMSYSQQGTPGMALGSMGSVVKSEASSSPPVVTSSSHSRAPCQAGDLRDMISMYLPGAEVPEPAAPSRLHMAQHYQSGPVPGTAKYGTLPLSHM
UniProt P20263, whole entry: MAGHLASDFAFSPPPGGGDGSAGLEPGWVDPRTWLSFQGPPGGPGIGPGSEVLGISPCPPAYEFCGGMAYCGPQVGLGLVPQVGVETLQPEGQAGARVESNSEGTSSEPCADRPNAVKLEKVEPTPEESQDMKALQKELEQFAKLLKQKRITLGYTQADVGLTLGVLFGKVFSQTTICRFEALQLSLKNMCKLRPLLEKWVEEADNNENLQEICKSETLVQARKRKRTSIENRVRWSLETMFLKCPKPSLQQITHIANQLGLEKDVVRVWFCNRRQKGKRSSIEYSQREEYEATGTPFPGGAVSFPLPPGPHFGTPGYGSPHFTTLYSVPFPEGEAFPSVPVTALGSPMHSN

In data set [1] the target is mCherry-Sox2 (N-terminal mCherry fusion, GGSG linker) (mouse) (UniProt P48432). Put plainly: FCS. The following applies: apparent Kd, no Oct4; protein in a lysate after overexpression; protein details: N-terminal mCherry, GGSG linker; label: Cy5.
In data set [2] the target is GFP-Oct4 (N-terminal GFP fusion, GGSG linker) (mouse) (UniProt P20263). Briefly: FCS. The following applies: apparent Kd, protein in a lysate after overexpression, protein details: N-terminal GFP, GGSG linker, label: Cy5.
Data set [3] relates to GFP-Oct4 (N-terminal GFP fusion, GGSG linker) + mCherry-Sox2 (N-terminal mCherry fusion, GGSG linker). Briefly: FCS. The following applies: apparent Kd, protein in a lysate after overexpression, label: Cy5.
Data set [4] has as its target mCherry-Sox2 (N-terminal mCherry fusion, GGSG linker) (mouse) (UniProt P48432). Briefly: EMSA. To be noted: FCS/EMSA with 5 nM Cy5-DNA (FCS) and unpurified CHO nuclear lysate, protein in a lysate after overexpression, protein details: N-terminal mCherry, GGSG linker, label: Cy5. (In EMSA bound probe runs differently from free probe, usually more slowly.)
The target in data set [5] is GFP-Oct4 (N-terminal GFP fusion, GGSG linker) (mouse) (UniProt P20263). Put plainly: EMSA. The following applies: ES cell nuclear lysate; FCS/EMSA with 5 nM Cy5-DNA (FCS) and unpurified CHO nuclear lysate; protein in a lysate after overexpression; protein details: N-terminal GFP, GGSG linker; label: Cy5.
Data set [6] concerns GFP-Oct4 (N-terminal GFP fusion, GGSG linker) + endogenous Sox2. Briefly: EMSA. The following applies: ES cell nuclear lysate; FCS/EMSA with 5 nM Cy5-DNA (FCS) and unpurified CHO nuclear lysate; protein in a lysate after overexpression; protein details: N-terminal GFP, GGSG linker; label: Cy5.
Data set [7] has as its system GFP-Oct4 (N-terminal GFP fusion, GGSG linker) + mCherry-Sox2 (N-terminal mCherry fusion, GGSG linker). Put plainly: EMSA. To be noted: FCS/EMSA with 5 nM Cy5-DNA (FCS) and unpurified CHO nuclear lysate, protein in a lysate after overexpression, label: Cy5; for pKd: apparent Kd.
The test system is the same in data set [8]. Put plainly: FRET. The following applies: CHO nuclear extract, no FRET without DNA; protein in a lysate after overexpression; label: Cy5.
Setting [9] is: no Sox2, assignment by order in sentence.

pKd: −log10 of the molar value. For at least one entry, the source does not settle the construct or the ends of the probe. At least one result comes from cells or an extract, where the contact may be indirect.

The term pKd denotes the Kd on a negative log10 scale, so that one unit is a factor of ten. In the case of “TCCACCATGGACATTGTAATGCAAAAGAAGCTGTAAG (double strand) [Nanog-SO]”, the negative logarithm of the Kd (pKd) in data set [1] was 7.50; in data set [2] (no Sox2), 7.55; in data set [3] (GFP-Oct4 titrated, mCherry-Sox2 37 nM, cooperativity 2.0), 7.86; in data set [3] (GFP-Oct4 titrated, mCherry-Sox2 72 nM, cooperativity 2.4), 7.94; in data set [3] (mCherry-Sox2 titrated, GFP-Oct4 40 nM, cooperativity 2.4) it was 7.88. The binding result in data set [4] (ES cell nuclear lysate), in data set [5], in data set [6], in data set [7] (ES cell nuclear lysate) and in data set [8] was “binds” throughout.

For “TAGAAAACTCTTTGTTTGGATGCTAATGGGATACTTA (double strand) [Fgf4-SO]”, the negative-log Kd (pKd) in data set [1] is 7.15; in data set [2] (no Sox2), 7.37; in data set [3] (GFP-Oct4 titrated, mCherry-Sox2 37 nM, cooperativity 0.9) it was 7.31; in data set [3] (GFP-Oct4 titrated, mCherry-Sox2 72 nM), 7.60; in data set [3] (mCherry-Sox2 titrated, GFP-Oct4 40 nM), 7.62; in data set [7] (GFP-Oct4 titrated, mCherry-Sox2 72 nM, Table 1 gives this value as FCS, cooperativity 1.7) it was 7.60. The pKd in data set [7] (mCherry-Sox2 titrated, GFP-Oct4 40 nM, Table 1 prints 23.3 ± 1.2 (FCS), cooperativity 3.0) was 7.63. In addition, the binding result in data set [4] (monomer complex) was “binds”.

Turning to “CTATCATGCACCTTTGTTATGCATCTGCCGTCTGCCC (double strand) [Oct4-SO]”, the pKd in data set [2] (setting [9]) is 8.11.

Turning to “CTCGGGCAGCCATTGTGATGCATATAGGATTATTCA (double strand) [Sox2-SO]”, the values for the pKd in data set [1] and in data set [2] (setting [9]) were 7.18 and 7.80, respectively.

Turning to “GGATGAGCCGTCATTGTTATGCTAGTGAAGTGCCGGC (double strand) [Utf1-SO]”, the pKd in data set [1] is 7.36; in data set [2] (no Sox2), 7.49; in data set [3] (GFP-Oct4 titrated, mCherry-Sox2 37 nM, cooperativity 1.6), 7.70; in data set [3] (GFP-Oct4 titrated, mCherry-Sox2 72 nM, cooperativity 2.1) it was 7.81; in data set [3] (mCherry-Sox2 titrated, GFP-Oct4 40 nM, cooperativity 1.0) it was 7.36.

As to “GCCACCCCACTTCATTGTAGCATTTCTTTCATTTGTC (double strand) [Fgfr2-S]”, the pKd in data set [1] is 7.09. In data set [4] (monomer complex), the binding result is given as “binds”.
